Measured values from PubChem BioAssay AID493014 (National Center for Advancing Translational Sciences (NCATS), 2011).
Some of the results follow. These are further read-outs of the screen, such as a control signal, another cell line or another target. No call is given for them. Compounds called inactive in the main read-out are mostly missing here. Potencies come from curve fits of mixed quality, noted in brackets.

Experiment: qHTS Assay to Find Inhibitors of Chronic Active B-Cell Receptor Signaling
Conditions: ABC-DLBCL IkBa-CBG/CBR reporter, luminescence ratio (green luciferase fused to IkBa over red control in TMD8 lymphoma cells), 4 h
Procedure, shortened: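 Cell line TMD8 (human ABC DLBCL), stably expressing tet-inducible CBG68-IkBa fusion and CBR; IMDM/0.5% FBS; cpd up to 46 uM; dox induction, 4 h, 37C/5% CO2; dual luminescence; green/red ratio; MG132 control.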

[1] = measured here: CBR red luminescence, cell number
[2] = measured here: IkBa-CBG green luminescence

With `CCC(=O)Oc1cccc(C(=O)Nc2cccc(NC(=O)c3ccco3)c2)c1` the AC50 [1] was 7.08 µM [falling, full curve, poor fit].

For `Cc1cc2ncc(-c3cccc(Cl)c3)cn2n1`, the AC50 [1] was 12.6 µM [rising, partial curve, poor fit].

In the case of `CN1CCc2c(sc(NC(=O)c3cc(Cl)sc3Cl)c2C(N)=O)C1`, the AC50 [1] was 17.8 µM [falling, single point].

For `O=C(CCCCCCCC(=O)NNC(=O)Nc1ccccc1)NNC(=O)Nc1ccccc1`, the AC50 [1] was 29.1 µM [rising, single point].

In the case of `COc1ccc(NC(=O)CSc2nnc(NC(=O)Nc3ccccc3)s2)c(OC)c1`, the AC50 [1] was 0.316 µM [falling, full curve, poor fit].

In the case of `CCOC(=O)C(=CNNc1ccccc1)C(=O)OCC`, the AC50 [1] was 35.5 µM [falling, partial curve, poor fit].

In the case of `CC(C)c1ccc(NC(=O)COc2ccc(F)cc2C(=O)c2cnn(-c3ccccc3)c2)cc1`, the AC50 [1] was 5.8 µM [rising, full curve, poor fit].

For `O=C(Cc1ccc(Cl)cc1)Nc1ccc(S(=O)(=O)Nc2ncccn2)cc1`, the AC50 [1] was 35.5 µM [rising, single point].

For `COc1cc(/C=C/c2ccc3cccc([N+](=O)[O-])c3n2)ccc1OCC#N`, the AC50 [1] was 20.6 µM [rising, partial curve, poor fit].

In the case of `Cc1ccc(-n2nc(C)c(C(=O)O)n2)c(C)c1`, the AC50 [1] was 1.3 µM [falling, partial curve].

In the case of `C[C@H](CO)N1C[C@H](C)[C@@H](CN(C)S(=O)(=O)c2ccccc2)Oc2ccc(NC(=O)Cc3ccccc3)cc2C1=O`, the AC50 [1] was 29.1 µM [rising, single point].

For `COCCOc1cnn(-c2cc(Oc3ccc(C)cc3)ncn2)c(=O)c1Cl`, the AC50 [1] was 2.91 µM [rising, partial curve, poor fit].

With `O=C(O)c1ccc(NC(=S)NC(=O)c2cncc(Br)c2)cc1` the AC50 [1] was 0.891 µM [falling, full curve, poor fit].

In the case of `O=C(Nc1ccc2nc(C3CC3)n(Cc3ccc(F)cc3)c(=O)c2c1)c1ccco1`, the AC50 [1] was 35.5 µM [falling, single point].

In the case of `Cc1ccc(SCC(=O)NCCc2ccccc2)cc1`, the AC50 [1] was 3.16 µM [rising, partial curve, poor fit].

For `O=C(Nc1nc2c(F)cc(F)cc2s1)c1ccco1`, the AC50 [1] was 8.91 µM [falling, partial curve].

For `O=C(CN1C(=O)C2CCCCC2C1=O)Nc1nc(-c2ccccn2)cs1` (stereo not drawn), the AC50 [1] was 6.51 µM [falling, partial curve, poor fit].

In the case of `COc1ccc(/C=N/Nc2nc3ccccc3c(=O)n2-c2ccccc2)cc1OC`, the AC50 [1] was 5.8 µM [falling, full curve] and the AC50 [2] was 0.058 µM [rising, full curve].

In the case of `O=C(COc1ncnc2cc([N+](=O)[O-])ccc12)NCc1ccc2c(c1)OCO2`, the AC50 [1] was 16.4 µM [falling, partial curve, poor fit].

For `O=C(NCc1ccc(F)cc1)c1cc2ccccn2n1`, the AC50 [1] was 20.6 µM [rising, partial curve, poor fit].

For `C#CCOCCOCCOCCNc1nc(N2CCOCC2)nc(N2CCN(C(=O)[C@H](Cc3ccc(O)cc3)n3cc([C@@H](N)C(C)CC)nn3)CC2)n1` (stereo partly drawn), the AC50 [1] was 6.31 µM [rising, single point].

With `CCCCC(=NCCc1c(C)[nH]c2ccc(OC)cc12)C1=C(O)CC(c2ccccc2)CC1=O` (stereo not drawn) the AC50 [1] was 5.01 µM [rising, partial curve, poor fit].

For `CCOC(=O)C1(Cc2cccc(OC)c2)CCCN(Cc2cc(C(C)C)n[nH]2)C1` (stereo not drawn), the AC50 [1] was 35.5 µM [falling, single point].

For `CN(C)CCCn1c(=O)n(Cc2ccco2)c(=O)c2c3c(sc21)CCCCC3`, the AC50 [1] was 6.31 µM [falling, partial curve, poor fit].

In the case of `COc1ccc(-c2cn(-c3ccc(OC)cc3)c3[n+]2-c2ccccc2CC3)cc1`, the AC50 [1] was 29.1 µM [falling, single point].

With `CCOc1cccc2sc(=NC(=O)c3ccco3)n(CC(=O)OC)c12` the AC50 [1] was 4.47 µM [rising, full curve, poor fit].

In the case of `CC(=O)c1sc(NC(=O)c2ccc3c(c2)OCO3)nc1C`, the AC50 [1] was 10 µM [falling, partial curve, poor fit].

In the case of `Cc1ccc(N(Cc2cc3ccccc3[nH]c2=O)S(C)(=O)=O)cc1`, the AC50 [1] was 14.1 µM [falling, single point].

With `COc1cccc(/C=N/NC(=O)c2ccc(COc3ccc(Cl)cc3Cl)o2)c1` the AC50 [1] was 4.47 µM [falling, full curve, poor fit].

For `CC(CCc1ccccc1)NC(=O)/C=C/c1ccccc1` (stereo not drawn), the AC50 [1] was 0.0891 µM [rising, full curve, poor fit].

For `FC(F)(F)c1cnc2c(c1)Nc1ccccc1S2`, the AC50 [1] was 0.398 µM [rising, full curve].

In the case of `C/C(CC(=O)Nc1ccc([N+](=O)[O-])cc1)=N\NC(=O)c1ccccc1[N+](=O)[O-]`, the AC50 [1] was 7.94 µM [falling, partial curve, poor fit].

With `Cc1ccc(NS(=O)(=O)c2cc([N+](=O)[O-])ccc2NNC(=S)Nc2cccc(Cl)c2)c(C)c1` the AC50 [1] was 16.4 µM [falling, single point] and the AC50 [2] was 20.6 µM [rising, single point].

With `COc1ccc(C(=O)Nc2nc3ccccc3[nH]2)cc1` the AC50 [1] was 1.12 µM [falling, full curve].

For `CCOC(=O)c1ccc(NC(=O)c2c(NCc3sccc3C)sc3c2CCCCC3)cc1`, the AC50 [1] was 35.5 µM [falling, partial curve, poor fit].

For `CC(C)(C)c1ccc(C(=O)NC(Cc2c[nH]c3ccccc23)C(=O)OCC(=O)c2ccccc2)cc1` (stereo not drawn), the AC50 [1] was 8.91 µM [rising, partial curve].

For `CCOC(=O)C1=C(C)NC(=O)NC1c1c(OCC(=O)N2CCCCC2)ccc2ccccc12` (stereo not drawn), the AC50 [1] was 8.91 µM [rising, partial curve, poor fit].

For `COc1ccc(S(=O)(=O)N2CCOCC2)cc1NC(=O)c1ccc(-n2nc(C)cc2C)cc1`, the AC50 [1] was 0.316 µM [rising, full curve, poor fit].

In the case of `Cc1n[nH]c(C)c1N1C(=O)c2cccc3c(Br)ccc(c23)C1=O`, the AC50 [1] was 2.91 µM [falling, partial curve].

For `COc1ccccc1/C=C/C=N/N1CCN(c2ccccn2)CC1`, the AC50 [1] was 10 µM [falling, partial curve, poor fit].

For `O=C1CC(c2ccco2)CC(O)=C1C=NCCN1CCNCC1` (stereo not drawn), the AC50 [1] was 0.731 µM [falling, partial curve, poor fit].

For `Cc1ccc2c(c1)NC(=O)C(CC(=O)NCCCN1CCCCC1C)O2` (stereo not drawn), the AC50 [1] was 6.51 µM [rising, single point].

For `S=c1nc2ccccc2c2nc(-c3cccnc3)[nH]n12`, the AC50 [1] was 1.26 µM [rising, full curve, poor fit].

With `CC(=O)Nc1cccc(NC(=O)/C=C/c2ccc(S(=O)(=O)N3CCOCC3)cc2)c1` the AC50 [1] was 9.2 µM [falling, partial curve].

For `COC(=O)C1=CN(c2ccc(OC)cc2)C=C(C(=O)OC)C1c1cc(OC)c(OC)cc1OC`, the AC50 [1] was 35.5 µM [rising, single point].

For `COc1ccc(NC(=O)c2cc(C3CC3)nc3c2cnn3C(C)C)cc1OC`, the AC50 [1] was 0.206 µM [rising, full curve, poor fit].

With `COc1ccc(-c2csc(NC(=O)c3ccccc3S(C)(=O)=O)n2)cc1` the AC50 [1] was 3.55 µM [rising, full curve, poor fit].

With `CCCCn1c(-c2cccc(Br)c2)nc2cc3[nH]c(=O)c(C(C)C)nc3cc21` the AC50 [1] was 0.891 µM [falling, full curve].

In the case of `CCc1nnc2c(NCCc3ccc(OC)c(OC)c3)nc3ccccc3n12`, the AC50 [1] was 17.8 µM [rising, partial curve, poor fit].

For `O=C(Cn1cnc2c(nnn2Cc2ccccc2F)c1=O)N1CCN(c2ccccc2)CC1`, the AC50 [1] was 29.1 µM [rising, single point].

With `N#C/C(=C\c1ccc(Cl)cc1)c1nc(-c2ccco2)cs1` the AC50 [1] was 2.06 µM [rising, partial curve, poor fit].

In the case of `CCN(Cc1ccc(OC)c(F)c1)C(=O)CCl`, the AC50 [1] was 7.08 µM [falling, partial curve].

For `COc1ccc2cc(CN(CC3CCCO3)C(=S)NCc3ccco3)c(=O)[nH]c2c1` (stereo not drawn), the AC50 [1] was 0.447 µM [rising, full curve, poor fit].

In the case of `CCOc1cccc(CNc2ccc(O)cc2)c1OCc1ccccc1Cl`, the AC50 [1] was 18.4 µM [rising, partial curve].

In the case of `Cc1cc(C)cc(NC(=O)c2cccc(NC3=NC4CS(=O)(=O)CC4S3)c2)c1` (stereo not drawn), the AC50 [1] was 2.82 µM [rising, single point].

For `CNC(=S)Nc1cc(OC)ccc1OC`, the AC50 [1] was 6.51 µM [rising, partial curve, poor fit].

With `CCCc1nc2ccccc2c(=O)n1/N=C/c1c(C)[nH]n(-c2ccc(C)cc2)c1=O` the AC50 [1] was 17.8 µM [falling, single point].

In the case of `CC1CCC(C(C)C)C(OC(=O)C[n+]2cc(-c3ccc(Cl)cc3)n3c2CCC3)C1` (stereo not drawn), the AC50 [1] was 17.8 µM [falling, single point].

For `O=C(CNC(=O)c1ccc(Br)o1)Nc1cccc(-c2cnc3ccccc3n2)c1`, the AC50 [1] was 10 µM [rising, partial curve, poor fit].

With `S=C(Nc1ccccc1)Nc1nc2ccccc2n1CCOc1ccc(Cl)cc1` the AC50 [1] was 8.2 µM [falling, single point].

In the case of `COc1cccc(NC(=O)Nc2ccc3nsnc3c2)c1`, the AC50 [1] was 16.4 µM [falling, partial curve].
